{"source": "PubChem BioAssay AID743121 (NCATS, 2013)", "test": "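Knock-downs that sensitise breast cancer cells to camptothecin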 (primary screen)", "cells": "MDA-MB-231 cells, a human breast cancer line", "reagent": "single siRNA against human genes, 20 nM siRNA (0.8 pmol per well)", "duration": "120 h (drug added 48 h after transfection, read 72 h later)", "conditions": "camptothecin 20 nM (about EC30) for 72 h; vehicle 0.1% DMSO in parallel plates", "measurement": "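CellTiter-Glo ATP signal, scaled to control siRNA as percent viability; sensitisation given as log2 of untreated divided by camptothecin-treated viability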", "scale": "log2 vehicle/camptothecin viability: higher = stronger sensitisation to camptothecin", "rule for the call": "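Each gene scored by redundant siRNA activity (RSA) over its individual siRNA ratios; a gene is called active at p < 0.001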", "note": "The deposit covers about 26,000 reagents; this is a part drawn at random. Of all reagents, 167 (0.63%) were called active. 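Calls are per gene from RSA p-values that are not deposited; an individual active-marked siRNA can sensitise only weakly.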 Entries without a mark were called inactive. Further read-outs or replicates are left out here."}
{"Gene": "JUP", "PubChem SID": "SID164372243", "log2 vehicle/camptothecin viability": -0.237}
{"Gene": "JUP", "PubChem SID": "SID164372244", "log2 vehicle/camptothecin viability": -0.103}
{"Gene": "JUP", "PubChem SID": "SID164372246", "log2 vehicle/camptothecin viability": -0.432}
{"Gene": "JUP", "PubChem SID": "SID164372248", "log2 vehicle/camptothecin viability": -0.283}
{"Gene": "GNRHR", "PubChem SID": "SID164367054", "log2 vehicle/camptothecin viability": 0.277}
{"Gene": "GNRHR", "PubChem SID": "SID164367057", "log2 vehicle/camptothecin viability": -0.124}
{"Gene": "GNRHR", "PubChem SID": "SID164367059", "log2 vehicle/camptothecin viability": 0.0782}
{"Gene": "GNRHR", "PubChem SID": "SID164367060", "log2 vehicle/camptothecin viability": -0.609}
{"Gene": "BCL9", "PubChem SID": "SID164355169", "log2 vehicle/camptothecin viability": -0.0864}
{"Gene": "BCL9", "PubChem SID": "SID164355170", "log2 vehicle/camptothecin viability": -0.365}
{"Gene": "BCL9", "PubChem SID": "SID164355174", "log2 vehicle/camptothecin viability": -0.0747}
{"Gene": "BCL9", "PubChem SID": "SID164355175", "log2 vehicle/camptothecin viability": -0.068}
{"Gene": "ABCC8", "PubChem SID": "SID164390413", "log2 vehicle/camptothecin viability": -0.126}
{"Gene": "ABCC8", "PubChem SID": "SID164390416", "log2 vehicle/camptothecin viability": 0.681}
{"Gene": "ABCC8", "PubChem SID": "SID164390417", "log2 vehicle/camptothecin viability": -0.0881}

Records listed so far whose target name begins with G or g:
{"Gene": "GNRHR", "PubChem SID": "SID164367054", "log2 vehicle/camptothecin viability": 0.277}
{"Gene": "GNRHR", "PubChem SID": "SID164367057", "log2 vehicle/camptothecin viability": -0.124}
{"Gene": "GNRHR", "PubChem SID": "SID164367059", "log2 vehicle/camptothecin viability": 0.0782}
{"Gene": "GNRHR", "PubChem SID": "SID164367060", "log2 vehicle/camptothecin viability": -0.609}
